In patent US20040180399A1 (Pfizer, published 2004):
No constants are given. Whether binding was seen depends on the method and setting. Some entries that bind do so weakly or less than the wild type.

Target: T1, recombinant human IL-TIF/IL-22 (human) (UniProt Q9GZX6)
T1 sequence (looked up): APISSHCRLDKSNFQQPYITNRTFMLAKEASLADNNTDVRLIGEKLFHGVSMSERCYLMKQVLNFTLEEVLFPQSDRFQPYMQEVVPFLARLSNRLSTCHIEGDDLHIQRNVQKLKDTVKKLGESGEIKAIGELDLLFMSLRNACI
Experiment: ELISA, IL-TIF/IL-22 coated on plate, HEK293 supernatant, anti-Ig peroxidase detection

B1: IL-22R-Ig (Fc fusion, UniProt Q8N6P7 16-228, looked up)
chain: HAPEDPSDLLQHVKFQSSNFENILTWDSGPEGTPDTVYSIEYKTYGERDWVAKKGCQRITRKSCNLTVETGNLTELYYARVTAVSAGGRSATKMTDRFSSLQHTTLKPPDVTCISKVRSIQMIVHPTPTPIRAGDGHRLTLEDIFHDLFYHLELQVNRTYQMHLGGKQREYEFFGLTPDTEFLGTIMICVPTWAKESAPYMCRVKTLPDRTWT
notes: Used as supernatant of transiently transfected HEK293 cells; also called fusion protein of IL-22R and the IgG3 Fc fragment; not shown: IgG3 Fc fragment, made 'in similar fashion' to the murine IgG3 hinge-CH2-CH3 of IL-TIFR-Ig
- binding: binds
